The values below come from paper PMC7175337.

Sequences of proteins named here, by UniProt entry; tags and fusion partners are left off. Residues count along the entry.
UniProt P36544, residues 23-502: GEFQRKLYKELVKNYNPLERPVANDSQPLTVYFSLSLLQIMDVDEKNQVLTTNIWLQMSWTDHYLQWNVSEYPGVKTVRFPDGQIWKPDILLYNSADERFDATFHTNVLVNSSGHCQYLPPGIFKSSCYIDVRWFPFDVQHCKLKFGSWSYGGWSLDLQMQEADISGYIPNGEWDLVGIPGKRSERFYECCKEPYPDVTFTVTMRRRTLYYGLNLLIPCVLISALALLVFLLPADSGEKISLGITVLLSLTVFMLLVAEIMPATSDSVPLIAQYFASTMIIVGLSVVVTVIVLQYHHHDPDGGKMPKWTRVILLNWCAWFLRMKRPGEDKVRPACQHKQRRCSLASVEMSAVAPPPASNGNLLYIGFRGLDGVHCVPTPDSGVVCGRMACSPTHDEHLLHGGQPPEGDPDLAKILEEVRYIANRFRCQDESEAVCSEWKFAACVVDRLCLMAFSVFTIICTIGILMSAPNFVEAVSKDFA
UniProt Q05941, residues 23-502: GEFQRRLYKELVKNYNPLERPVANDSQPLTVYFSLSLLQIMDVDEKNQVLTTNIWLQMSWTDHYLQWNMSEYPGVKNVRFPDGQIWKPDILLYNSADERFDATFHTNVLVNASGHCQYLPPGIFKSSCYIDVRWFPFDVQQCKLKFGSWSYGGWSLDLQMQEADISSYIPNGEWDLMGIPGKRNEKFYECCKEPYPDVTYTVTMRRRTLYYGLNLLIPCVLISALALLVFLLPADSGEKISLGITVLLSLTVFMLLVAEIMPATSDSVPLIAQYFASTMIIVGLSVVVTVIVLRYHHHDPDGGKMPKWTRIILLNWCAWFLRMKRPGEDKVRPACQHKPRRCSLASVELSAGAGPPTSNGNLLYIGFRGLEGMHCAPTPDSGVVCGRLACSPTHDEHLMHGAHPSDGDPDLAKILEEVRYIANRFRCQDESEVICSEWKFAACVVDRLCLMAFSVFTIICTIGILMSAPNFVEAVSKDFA
UniProt P60615, residues 22-95: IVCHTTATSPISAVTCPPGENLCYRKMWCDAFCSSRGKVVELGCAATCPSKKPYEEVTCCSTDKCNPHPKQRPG

Results are given in words; binding and its absence hold for the method and conditions named. Some entries that bind do so weakly or less than the wild type.

One experiment concerns the target Human α7nAChR (human) (UniProt P36544). In words: radioligand binding; only the binder purified.
For another experiment, the target named is Rat α7nAChR (rat) (UniProt Q05941). In words: radioligand binding; only the binder purified.

“α-Bungarotoxin (from UniProt P60615 22-95) (ligand)”: the binding result in the experiment with Human α7nAChR (human) and in the experiment with Rat α7nAChR (rat) was “binds” each time.
